# Source: patent publication US10921327B2, “Probes for quantitative imaging of thiols in various environments” (Baylor College of Medicine, priority 2014, dated 2021)
# What was measured:
# HeLa cells = test: Live imaging based quantification of GSH levels, HeLa; format: cell-based
# 3T3-L1 cells = test: Live imaging based quantification of GSH levels, 3T3-L1; format: cell-based
structure (smiles),measurement,setting,value
CCN(CC)c1ccc2cc(/C=C/C(=O)c3ccc(C(=O)O)cc3Br)c(=O)oc2c1 [TQ Green],Imaging Based CGSH,HeLa cells,4.6 ± 0.8 mM
same,Imaging Based CGSH,3T3-L1 cells,4.6 ± 0.9 mM
